The target of assay [1] is vimentin (rat (endogenous in C6D8)) (UniProt P31000). Description: co-IP; immunoprecipitation with monoclonal anti-vimentin V9 from the cytoskeleton fraction of C6D8 cells; blot for GR, vimentin and lamin B; control IP with an antibody to measles virus protein.
The target in assay [2] is glucocorticoid receptor (rat (endogenous in C6D8 and C6D10)) (UniProt P06536). Description: co-IP; immunoprecipitation of GR from the detergent soluble fraction (supernatant lysis buffer); blots for HSC70 and HSP90.
For assay [3] the target is unchanged. Description: co-IP; immunoprecipitation of GR from the cytoskeleton fraction of anchoring competent cells; blots for nestin, tubulin, HSC70 and HSP90.

The chains behind the UniProt entries cited, without tags or fusion partners.
UniProt P31000: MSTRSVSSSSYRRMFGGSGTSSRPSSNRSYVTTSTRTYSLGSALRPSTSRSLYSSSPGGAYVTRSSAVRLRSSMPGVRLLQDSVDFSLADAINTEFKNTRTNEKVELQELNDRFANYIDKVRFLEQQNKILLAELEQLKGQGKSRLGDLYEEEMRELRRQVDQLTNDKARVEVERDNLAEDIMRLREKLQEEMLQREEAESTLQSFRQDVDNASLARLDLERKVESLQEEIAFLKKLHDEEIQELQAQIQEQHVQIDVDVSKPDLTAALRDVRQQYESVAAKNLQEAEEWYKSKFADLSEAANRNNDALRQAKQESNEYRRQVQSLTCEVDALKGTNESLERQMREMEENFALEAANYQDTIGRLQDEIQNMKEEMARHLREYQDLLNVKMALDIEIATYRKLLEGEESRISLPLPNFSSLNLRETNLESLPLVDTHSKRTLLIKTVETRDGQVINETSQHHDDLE
UniProt P06536: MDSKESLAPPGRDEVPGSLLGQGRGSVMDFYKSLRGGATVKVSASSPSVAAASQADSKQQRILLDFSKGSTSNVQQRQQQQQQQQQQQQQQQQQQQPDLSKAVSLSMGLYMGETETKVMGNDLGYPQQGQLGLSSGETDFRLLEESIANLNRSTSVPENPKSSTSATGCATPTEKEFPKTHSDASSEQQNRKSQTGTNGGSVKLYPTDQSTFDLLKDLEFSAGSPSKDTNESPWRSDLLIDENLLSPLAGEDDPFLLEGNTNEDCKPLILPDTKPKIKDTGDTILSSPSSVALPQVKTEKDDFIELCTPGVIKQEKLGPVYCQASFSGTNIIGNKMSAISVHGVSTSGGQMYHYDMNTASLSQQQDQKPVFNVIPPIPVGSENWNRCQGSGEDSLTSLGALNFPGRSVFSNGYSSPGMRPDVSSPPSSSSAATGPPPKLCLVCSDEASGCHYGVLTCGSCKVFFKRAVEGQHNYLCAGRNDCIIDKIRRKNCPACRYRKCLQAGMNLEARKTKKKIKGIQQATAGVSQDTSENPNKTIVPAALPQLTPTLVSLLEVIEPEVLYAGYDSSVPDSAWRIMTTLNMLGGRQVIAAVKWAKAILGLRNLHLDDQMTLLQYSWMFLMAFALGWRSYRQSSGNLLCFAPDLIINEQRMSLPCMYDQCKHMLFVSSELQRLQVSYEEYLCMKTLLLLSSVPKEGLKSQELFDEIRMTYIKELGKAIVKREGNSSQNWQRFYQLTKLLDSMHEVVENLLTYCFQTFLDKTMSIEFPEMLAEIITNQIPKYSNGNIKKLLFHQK
UniProt P63018: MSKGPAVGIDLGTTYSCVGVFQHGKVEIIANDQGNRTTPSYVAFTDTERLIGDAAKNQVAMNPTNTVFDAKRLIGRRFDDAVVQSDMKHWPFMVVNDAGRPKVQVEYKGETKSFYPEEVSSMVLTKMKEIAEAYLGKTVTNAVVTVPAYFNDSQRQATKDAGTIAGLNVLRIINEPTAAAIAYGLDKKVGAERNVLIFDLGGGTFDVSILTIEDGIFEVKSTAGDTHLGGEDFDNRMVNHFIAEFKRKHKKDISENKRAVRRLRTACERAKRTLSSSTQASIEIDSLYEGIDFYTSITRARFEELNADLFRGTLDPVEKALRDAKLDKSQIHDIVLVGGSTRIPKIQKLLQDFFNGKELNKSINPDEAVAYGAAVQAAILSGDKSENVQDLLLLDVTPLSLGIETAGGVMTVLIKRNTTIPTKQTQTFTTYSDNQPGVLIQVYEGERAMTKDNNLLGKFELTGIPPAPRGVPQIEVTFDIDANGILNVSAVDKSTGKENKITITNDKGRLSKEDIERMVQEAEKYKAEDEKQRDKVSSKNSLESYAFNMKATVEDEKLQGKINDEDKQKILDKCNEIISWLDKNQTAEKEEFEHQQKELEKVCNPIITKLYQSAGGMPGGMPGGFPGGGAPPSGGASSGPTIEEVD

Results are given in words; binding and its absence hold for the method and conditions named. In cells and extracts the contact can be indirect. Some binding calls cover weakened binding; strength is not graded here.

On to “glucocorticoid receptor (from UniProt P06536 1-795)”, for which the binding entry in assay [1] is on record as “binds”.

Turning to HSC70 (from UniProt P63018 1-646), the binding entry in assay [2] and in assay [3] was “binds” each time.
